From article PMC8327854
These are yes or no findings as the source states them, for the method shown. For part of these data: A result given as binding can be weak or reduced; the word gives no strength.

Assays:
[1] = target: T1, α-dystroglycan lacking functional glycosylation (from WWS FKRP mutant cells) (human (endogenous in iPS cells and iPS cell-derived myotubes)) (UniProt Q14118); test: far-Western, overlay or dot blot; laminin overlay assay (LOA): WGA-agarose eluates of myotube lysates (400 ug protein) resolved on 4%-20% SDS-PAGE, on PVDF; overlaid with 1 mg/ml native laminin in TBS with 1 mM CaCl2, 1 mM MgCl2, 3% BSA, 2 hr at room temperature; detected with anti-laminin; only the binder purified
T1 sequence: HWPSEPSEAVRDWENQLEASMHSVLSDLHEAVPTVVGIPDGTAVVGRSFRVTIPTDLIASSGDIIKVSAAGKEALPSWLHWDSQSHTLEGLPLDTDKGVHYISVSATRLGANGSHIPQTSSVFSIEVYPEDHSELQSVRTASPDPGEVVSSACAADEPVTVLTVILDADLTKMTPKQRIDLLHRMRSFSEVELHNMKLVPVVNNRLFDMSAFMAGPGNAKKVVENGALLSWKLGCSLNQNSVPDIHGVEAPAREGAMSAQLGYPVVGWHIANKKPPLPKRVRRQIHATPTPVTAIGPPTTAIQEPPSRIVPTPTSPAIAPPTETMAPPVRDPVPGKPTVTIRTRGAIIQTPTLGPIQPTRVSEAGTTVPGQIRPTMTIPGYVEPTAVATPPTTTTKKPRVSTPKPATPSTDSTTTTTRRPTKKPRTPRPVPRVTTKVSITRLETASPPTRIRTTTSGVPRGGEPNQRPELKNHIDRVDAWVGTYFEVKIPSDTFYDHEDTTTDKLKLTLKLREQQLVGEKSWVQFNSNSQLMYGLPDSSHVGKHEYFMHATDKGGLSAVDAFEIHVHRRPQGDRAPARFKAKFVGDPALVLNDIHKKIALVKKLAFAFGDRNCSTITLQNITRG

[2] = target: T2, α-dystroglycan with functional glycosylation (human (endogenous in iPS cell-derived myotubes)) (UniProt Q14118); test: as above
T2 sequence (chain, functional glycosylation (IIH6-reactive, laminin-binding)): T1 sequence

[3] = target: T1, α-dystroglycan lacking functional glycosylation (from WWS FKRP mutant cells) (human (endogenous in iPS cells and iPS cell-derived myotubes)); test: far-Western, overlay or dot blot; laminin overlay assay (LOA) on samples of undifferentiated iPS cells (Figure S1E); only the binder purified

binding [1]: no binding (tested: 1 mg/ml)
binding [2]: binds
binding [3]: no binding
Substance: native laminin (L2020 Sigma) (complex)
